From publication PMC7717600, “Novel [(N-alkyl-3-indolylmethylene)hydrazono]oxindoles arrest cell cycle and induce cell apoptosis by inhibiting CDK2 and Bcl-2: synthesis, biological evaluation and in silico studies” (Journal of Enzyme Inhibition and Medicinal Chemistry, 2020)

Test system: panel of 59 human cancer cell lines
Experiment: NCI screening, panel and subpanel summaries
Settings: cell lines with GI % higher than 10% at 10 μM

## CCCn1cc(C=NN=C2C(=O)Nc3ccc(C)cc32)c2ccccc21 [Compound 8a]
  Sensitive cell lines no.: 58
